For at least one entry, the source does not settle the construct or the ends of the probe. Negatives hold for the conditions tested. Tags and fusion partners may be left off the protein sequences shown.

The target of the data set is T1, eEF1A1 (Homo sapiens (HeLa S-100)) (UniProt P68104).
T1 sequence (looked up, limits assumed): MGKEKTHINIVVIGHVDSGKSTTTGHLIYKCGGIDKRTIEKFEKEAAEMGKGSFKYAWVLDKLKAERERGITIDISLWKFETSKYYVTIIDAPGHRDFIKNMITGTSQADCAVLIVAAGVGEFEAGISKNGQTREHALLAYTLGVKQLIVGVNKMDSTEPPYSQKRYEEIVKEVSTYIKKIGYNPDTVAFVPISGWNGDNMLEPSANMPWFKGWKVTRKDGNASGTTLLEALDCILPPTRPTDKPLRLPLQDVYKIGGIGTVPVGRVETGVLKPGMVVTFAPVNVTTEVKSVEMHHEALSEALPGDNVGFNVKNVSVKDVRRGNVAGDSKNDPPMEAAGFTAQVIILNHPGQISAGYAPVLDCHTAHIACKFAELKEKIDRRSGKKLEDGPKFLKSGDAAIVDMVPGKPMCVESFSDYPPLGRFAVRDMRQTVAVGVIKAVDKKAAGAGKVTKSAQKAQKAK
Briefly: EMSA. The note with it: RNA EMSA: purified eEF1A1 with 20 kcpm RNA (~0.1 pmol/ul), 50 uM GTP, 30 min, room temperature; protein stock in 50 mM Tris-HCl pH 7.5, 100 mM KCl, 0.5 mM EDTA, 2 mM DTT; native protein; label: 32P CTP; probe letters rebuilt from the primers and the …. On the technique in general: A gel shift assay detects complexes by their altered migration in electrophoresis.

Turning to “GGGAUAAAAGCCCAGGGGCAAGCGGUCCGGAUAACGGCUAGCCUGAGGAGCUGCUGCGACAGUCCACUACCUUUUUCGAGAGUGACUCCCGUUGUCCCAAGGCUUCCCAGAGCGAACCUGUGCGGCUGCAGGCACCGGCGCGUCGAGUUUCCGGCGUCCGGAAGGACCGAGCUCUUCUCGCGGAUCCAGUGUUCCGUUUCCAGCCCCCAAUCUCAGAGCGGAGCCGACAGAGAGCAGGGAACCGGCA [HSP70 5'UTR]”, the binding result is given as “no binding”.

Values taken from PMC4164936, “The translation elongation factor eEF1A1 couples transcription to translation during heat shock response”.
